Values of other authors in article PMC12294558, “New 1,2,4-Triazole Derivatives with a N-Mannich Base Structure Based on a 4,6-Dimethylpyridine Scaffold as Anticancer Agents: Design, Synthesis, Biological Evaluation, and Molecular Modeling” (International Journal of Molecular Sciences, 2025).

Test system: HepG2 cells
Parameters: method as in PMID 36181443
Settings: cited from earlier work

COc1cccc2c1C(=O)c1c(O)c3c(c(O)c1C2=O)C[C@@](O)(C(=O)CO)C[C@@H]3O[C@H]1C[C@H](N)[C@H](O)[C@H](C)O1 [Doxorubicin, doxorubicin]
IC50: 4.45 µM
